Measured values as given in PMC6613617.
No constants are given. Whether binding was seen depends on the method and setting. In cells and extracts the contact can be indirect. Some entries that bind do so weakly or less than the wild type. Sequences can lack the tags named with a protein.

Protein sequences, listed by entry. Tags and fused reporters are not part of them. Lines headed by an entry give the natural chain unless they say otherwise; changes in a name come on top.
UniProt P28340: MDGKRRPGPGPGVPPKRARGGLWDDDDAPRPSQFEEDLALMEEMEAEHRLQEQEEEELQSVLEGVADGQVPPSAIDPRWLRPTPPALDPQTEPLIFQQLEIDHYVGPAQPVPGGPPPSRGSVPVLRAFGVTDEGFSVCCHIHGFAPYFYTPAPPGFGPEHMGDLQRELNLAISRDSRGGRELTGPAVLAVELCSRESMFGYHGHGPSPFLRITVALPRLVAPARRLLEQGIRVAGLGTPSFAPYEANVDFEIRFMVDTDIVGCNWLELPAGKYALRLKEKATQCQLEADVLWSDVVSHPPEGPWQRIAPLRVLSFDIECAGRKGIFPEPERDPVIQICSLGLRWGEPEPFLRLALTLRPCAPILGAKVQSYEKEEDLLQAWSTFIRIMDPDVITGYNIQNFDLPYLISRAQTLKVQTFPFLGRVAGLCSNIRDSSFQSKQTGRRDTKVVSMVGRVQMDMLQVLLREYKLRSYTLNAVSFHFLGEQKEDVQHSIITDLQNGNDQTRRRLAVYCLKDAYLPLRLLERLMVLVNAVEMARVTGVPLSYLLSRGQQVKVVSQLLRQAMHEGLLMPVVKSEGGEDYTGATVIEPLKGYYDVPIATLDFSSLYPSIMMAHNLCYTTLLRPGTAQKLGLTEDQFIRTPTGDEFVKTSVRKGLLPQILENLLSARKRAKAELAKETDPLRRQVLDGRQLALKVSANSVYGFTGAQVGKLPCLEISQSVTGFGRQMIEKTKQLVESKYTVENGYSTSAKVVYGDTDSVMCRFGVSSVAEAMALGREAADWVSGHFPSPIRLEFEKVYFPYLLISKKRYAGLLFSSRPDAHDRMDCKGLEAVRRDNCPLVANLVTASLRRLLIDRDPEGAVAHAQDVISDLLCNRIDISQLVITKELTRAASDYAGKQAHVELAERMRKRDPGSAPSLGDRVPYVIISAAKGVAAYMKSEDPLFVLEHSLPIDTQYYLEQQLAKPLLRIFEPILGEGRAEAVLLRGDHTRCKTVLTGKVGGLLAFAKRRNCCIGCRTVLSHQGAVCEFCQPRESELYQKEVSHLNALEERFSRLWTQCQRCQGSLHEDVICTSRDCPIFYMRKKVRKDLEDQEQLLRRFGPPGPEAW

What was measured:
[1] = target: N-terminally Flag-tagged POLD1 H1066Y (human) (UniProt P28340); experiment: pull-down; Flag-pull down (Flag-M2 agarose) from lysate of Sf9 cells co-expressing Flag-POLD1 variant, POLD2, POLD3, POLD4 and untagged PCNA; 50 mM Tris-HCl pH 8.0, 200 mM NaCl, 0.25% NP-40, 4°C; SDS-PAGE with protein stain
[2] = target: N-terminally Flag-tagged POLD1 H1066W (human) (UniProt P28340); experiment: as above
[3] = target: N-terminally Flag-tagged POLD1 H1066Y (human) (UniProt P28340); experiment: pull-down; Flag-pull down (Flag-M2 agarose) from lysate of Sf9 cells co-expressing Flag-POLD1 variant, POLD2 and POLD3 (three-subunit Pol δ3, no POLD4), with or without PCNA; SDS-PAGE with protein stain
[4] = target: N-terminally Flag-tagged POLD1 H1066W (human) (UniProt P28340); experiment: as above
[5] = target: N-terminally Flag-tagged POLD1 H1066Y (human) (UniProt P28340); experiment: pull-down; Flag-pull down (Flag-M2 agarose) from lysate of Sf9 cells co-expressing Flag-POLD1 variant, POLD2, POLD3 and POLD4, without PCNA; 50 mM Tris-HCl pH 8.0, 200 mM NaCl, 0.25% NP-40, 4°C; SDS-PAGE with protein stain
[6] = target: N-terminally Flag-tagged POLD1 H1066W (human) (UniProt P28340); experiment: as above

Row | binding [1] | binding [2] | binding [3] | binding [4] | binding [5] | binding [6] | Binder
1 | binds | binds | binds | binds | binds | binds | POLD3 (accessory subunit of human DNA polymerase delta), untagged (protein, UniProt Q15054 1-466) MADQLYLENIDEFVTDQNKIVTYKWLSYTLGVHVNQAKQMLYDYVERKRKENSGAQLHVTYLVSGSLIQNGHSCHKVAVVREDKLEAVKSKLAVTASIHVYSIQKAMLKDSGPLFNTDYDILKSNLQNCSKFSAIQCAAAVPRAPAESSSSSKKFEQSHLHMSSETQANNELTTNGHGPPASKQVSQQPKGIMGMFASKAAAKTQETNKETKTEAKEVTNASAAGNKAPGKGNMMSNFFGKAAMNKFKVNLDSEQAVKEEKIVEQPTVSVTEPKLATPAGLKKSSKKAEPVKVLQKEKKRGKRVALSDDETKETENMRKKRRRIKLPESDSSEDEVFPDSPGAYEAESPSPPPPPSPPLEPVPKTEPEPPSVKSSSGENKRKRKRVLKSKTYLDGEGCIVTEKVYESESCTDSEEELNMKTSSVHRPPAMTVKKEPREERKGPKKGTAALGKANRQVSITGFFQRK
2 | binds | binds |  |  | binds | binds | POLD4 (accessory subunit of human DNA polymerase delta), untagged (protein, UniProt Q9HCU8 1-107) MGRKRLITDSYPVVKRREGPAGHSKGELAPELGEEPQPRDEEEAELELLRQFDLAWQYGPCTGITRLQRWCRAKQMGLEPPPEVWQVLKTHPGDPRFQCSLWHLYPL
